Experimental data taken from the supplement of paper PMC10849652.
The other results are listed elsewhere or left out.

Amino acid sequences for entries named in this document (tags omitted). A change or cut given only in a name is not applied to a line headed by its entry.
UniProt P78362, whole entry, looked up: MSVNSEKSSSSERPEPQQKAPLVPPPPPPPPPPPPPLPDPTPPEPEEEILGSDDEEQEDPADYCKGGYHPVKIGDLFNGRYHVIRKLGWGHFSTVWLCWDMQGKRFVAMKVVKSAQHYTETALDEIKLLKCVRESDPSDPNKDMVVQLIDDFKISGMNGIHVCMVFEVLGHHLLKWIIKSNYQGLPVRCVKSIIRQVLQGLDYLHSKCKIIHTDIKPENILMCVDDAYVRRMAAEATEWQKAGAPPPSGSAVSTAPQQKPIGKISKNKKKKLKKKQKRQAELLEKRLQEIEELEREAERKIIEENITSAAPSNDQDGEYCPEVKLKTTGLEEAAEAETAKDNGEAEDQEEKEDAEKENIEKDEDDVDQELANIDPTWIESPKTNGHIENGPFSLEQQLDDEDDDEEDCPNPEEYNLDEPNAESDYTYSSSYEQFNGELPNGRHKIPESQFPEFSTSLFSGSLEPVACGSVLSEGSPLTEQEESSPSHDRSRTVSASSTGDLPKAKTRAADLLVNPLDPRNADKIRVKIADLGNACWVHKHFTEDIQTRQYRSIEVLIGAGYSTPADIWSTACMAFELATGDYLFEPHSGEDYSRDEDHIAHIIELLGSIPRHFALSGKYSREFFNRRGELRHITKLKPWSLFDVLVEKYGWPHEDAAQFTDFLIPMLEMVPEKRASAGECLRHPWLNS
UniProt Q8NB90: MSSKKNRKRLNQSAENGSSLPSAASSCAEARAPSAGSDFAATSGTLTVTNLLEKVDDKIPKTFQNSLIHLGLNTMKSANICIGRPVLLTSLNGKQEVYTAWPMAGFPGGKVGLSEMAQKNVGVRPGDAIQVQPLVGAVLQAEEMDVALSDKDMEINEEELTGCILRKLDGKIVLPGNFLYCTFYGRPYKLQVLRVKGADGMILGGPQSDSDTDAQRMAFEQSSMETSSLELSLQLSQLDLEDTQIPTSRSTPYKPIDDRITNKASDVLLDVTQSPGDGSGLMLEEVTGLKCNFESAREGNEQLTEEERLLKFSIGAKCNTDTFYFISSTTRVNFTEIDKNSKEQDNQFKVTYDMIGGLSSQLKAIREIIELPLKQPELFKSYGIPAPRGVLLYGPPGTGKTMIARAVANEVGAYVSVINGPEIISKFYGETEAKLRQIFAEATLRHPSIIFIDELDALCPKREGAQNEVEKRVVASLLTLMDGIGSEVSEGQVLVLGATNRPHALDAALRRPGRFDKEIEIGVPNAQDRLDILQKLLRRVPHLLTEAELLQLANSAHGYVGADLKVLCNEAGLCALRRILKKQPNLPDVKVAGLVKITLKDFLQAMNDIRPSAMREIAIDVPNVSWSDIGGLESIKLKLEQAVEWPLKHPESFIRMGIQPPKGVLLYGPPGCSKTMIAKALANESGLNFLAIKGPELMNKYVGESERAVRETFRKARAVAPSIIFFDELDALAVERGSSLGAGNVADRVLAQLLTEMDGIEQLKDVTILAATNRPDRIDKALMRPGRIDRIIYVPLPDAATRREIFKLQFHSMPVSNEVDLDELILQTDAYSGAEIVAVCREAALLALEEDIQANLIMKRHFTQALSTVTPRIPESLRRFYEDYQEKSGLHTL
UniProt Q01130: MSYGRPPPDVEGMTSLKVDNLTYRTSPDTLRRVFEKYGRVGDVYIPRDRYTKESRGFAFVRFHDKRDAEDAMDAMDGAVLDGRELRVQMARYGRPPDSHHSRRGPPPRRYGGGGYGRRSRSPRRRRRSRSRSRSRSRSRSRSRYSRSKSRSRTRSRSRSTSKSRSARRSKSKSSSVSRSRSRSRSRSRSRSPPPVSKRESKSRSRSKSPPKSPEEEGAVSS
UniProt Q16385, whole entry, looked up: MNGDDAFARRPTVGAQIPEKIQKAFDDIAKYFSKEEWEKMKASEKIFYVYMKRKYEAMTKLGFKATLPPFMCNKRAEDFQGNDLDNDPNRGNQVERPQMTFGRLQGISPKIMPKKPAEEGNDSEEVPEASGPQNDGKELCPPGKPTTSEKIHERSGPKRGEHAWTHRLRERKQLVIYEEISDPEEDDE
UniProt P11277, whole entry, looked up: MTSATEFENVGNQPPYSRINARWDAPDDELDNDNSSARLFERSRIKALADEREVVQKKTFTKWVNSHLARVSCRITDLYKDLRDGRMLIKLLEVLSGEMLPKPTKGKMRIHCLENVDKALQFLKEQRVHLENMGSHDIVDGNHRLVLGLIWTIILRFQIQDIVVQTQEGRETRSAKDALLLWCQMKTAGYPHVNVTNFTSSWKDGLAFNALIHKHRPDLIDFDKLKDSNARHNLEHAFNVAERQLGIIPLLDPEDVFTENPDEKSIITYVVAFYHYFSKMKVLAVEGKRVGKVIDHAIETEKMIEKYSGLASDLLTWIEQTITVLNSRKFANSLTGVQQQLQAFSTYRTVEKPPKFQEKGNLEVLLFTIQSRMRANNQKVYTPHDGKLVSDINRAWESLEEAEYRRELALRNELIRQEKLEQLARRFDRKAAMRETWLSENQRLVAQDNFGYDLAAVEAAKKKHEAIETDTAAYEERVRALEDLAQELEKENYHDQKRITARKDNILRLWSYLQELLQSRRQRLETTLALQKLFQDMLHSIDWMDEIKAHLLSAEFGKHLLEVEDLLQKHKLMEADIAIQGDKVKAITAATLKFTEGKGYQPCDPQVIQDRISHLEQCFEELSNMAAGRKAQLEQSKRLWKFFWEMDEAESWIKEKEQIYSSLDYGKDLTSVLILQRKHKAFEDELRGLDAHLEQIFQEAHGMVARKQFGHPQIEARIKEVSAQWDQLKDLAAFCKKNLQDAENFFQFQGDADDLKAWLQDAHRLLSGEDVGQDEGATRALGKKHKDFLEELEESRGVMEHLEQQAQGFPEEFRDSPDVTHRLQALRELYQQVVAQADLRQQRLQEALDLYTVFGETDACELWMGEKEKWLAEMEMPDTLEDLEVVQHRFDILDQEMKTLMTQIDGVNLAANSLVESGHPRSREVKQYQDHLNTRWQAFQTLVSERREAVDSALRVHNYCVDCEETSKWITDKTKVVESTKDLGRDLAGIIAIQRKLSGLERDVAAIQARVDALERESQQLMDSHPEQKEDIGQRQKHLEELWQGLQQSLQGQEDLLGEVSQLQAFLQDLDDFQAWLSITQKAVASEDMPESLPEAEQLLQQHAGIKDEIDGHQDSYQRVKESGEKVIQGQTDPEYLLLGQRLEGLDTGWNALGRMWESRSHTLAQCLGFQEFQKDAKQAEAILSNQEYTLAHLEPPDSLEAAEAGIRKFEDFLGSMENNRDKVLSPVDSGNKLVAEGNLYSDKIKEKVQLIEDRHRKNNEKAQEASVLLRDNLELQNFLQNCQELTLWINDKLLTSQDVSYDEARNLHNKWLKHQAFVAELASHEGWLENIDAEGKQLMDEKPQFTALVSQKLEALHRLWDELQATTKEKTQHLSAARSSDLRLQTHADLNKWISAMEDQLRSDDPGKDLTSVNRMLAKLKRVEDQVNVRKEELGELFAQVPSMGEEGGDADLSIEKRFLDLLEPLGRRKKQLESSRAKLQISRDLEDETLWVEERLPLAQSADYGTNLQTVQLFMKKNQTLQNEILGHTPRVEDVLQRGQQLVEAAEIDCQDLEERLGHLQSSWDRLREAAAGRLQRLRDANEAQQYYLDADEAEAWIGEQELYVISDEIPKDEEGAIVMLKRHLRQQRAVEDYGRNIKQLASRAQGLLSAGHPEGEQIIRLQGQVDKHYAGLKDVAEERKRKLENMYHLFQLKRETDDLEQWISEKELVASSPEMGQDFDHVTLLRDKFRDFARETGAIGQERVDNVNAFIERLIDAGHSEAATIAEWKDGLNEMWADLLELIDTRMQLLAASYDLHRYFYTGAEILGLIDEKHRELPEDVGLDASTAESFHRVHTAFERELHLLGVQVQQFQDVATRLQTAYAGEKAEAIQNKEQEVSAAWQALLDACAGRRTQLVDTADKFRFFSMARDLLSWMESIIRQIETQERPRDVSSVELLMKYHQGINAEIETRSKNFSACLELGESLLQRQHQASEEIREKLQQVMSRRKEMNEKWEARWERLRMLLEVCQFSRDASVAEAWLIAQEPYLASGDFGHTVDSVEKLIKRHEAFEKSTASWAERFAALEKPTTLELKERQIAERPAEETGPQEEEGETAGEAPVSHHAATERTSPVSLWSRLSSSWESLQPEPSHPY
UniProt P40763, whole entry, looked up: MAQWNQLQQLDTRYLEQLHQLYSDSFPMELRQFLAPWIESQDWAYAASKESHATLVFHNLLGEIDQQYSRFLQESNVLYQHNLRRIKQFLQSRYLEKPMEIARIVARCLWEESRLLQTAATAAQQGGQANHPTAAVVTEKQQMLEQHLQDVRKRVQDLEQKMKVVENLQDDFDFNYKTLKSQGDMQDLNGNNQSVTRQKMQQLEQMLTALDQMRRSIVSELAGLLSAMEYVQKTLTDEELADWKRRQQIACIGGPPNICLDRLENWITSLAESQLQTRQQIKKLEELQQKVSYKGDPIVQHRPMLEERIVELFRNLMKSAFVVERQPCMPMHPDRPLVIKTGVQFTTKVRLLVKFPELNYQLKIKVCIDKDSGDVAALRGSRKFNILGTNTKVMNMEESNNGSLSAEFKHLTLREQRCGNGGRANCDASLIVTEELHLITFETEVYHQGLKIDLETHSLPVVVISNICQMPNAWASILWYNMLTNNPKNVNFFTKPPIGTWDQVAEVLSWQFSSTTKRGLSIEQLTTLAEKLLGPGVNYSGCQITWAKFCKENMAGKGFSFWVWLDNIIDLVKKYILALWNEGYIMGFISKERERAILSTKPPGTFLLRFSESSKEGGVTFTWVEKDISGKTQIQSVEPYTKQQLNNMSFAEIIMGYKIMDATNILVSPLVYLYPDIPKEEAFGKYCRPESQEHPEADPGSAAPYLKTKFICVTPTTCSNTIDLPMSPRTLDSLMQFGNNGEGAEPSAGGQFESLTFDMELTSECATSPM
UniProt Q15468: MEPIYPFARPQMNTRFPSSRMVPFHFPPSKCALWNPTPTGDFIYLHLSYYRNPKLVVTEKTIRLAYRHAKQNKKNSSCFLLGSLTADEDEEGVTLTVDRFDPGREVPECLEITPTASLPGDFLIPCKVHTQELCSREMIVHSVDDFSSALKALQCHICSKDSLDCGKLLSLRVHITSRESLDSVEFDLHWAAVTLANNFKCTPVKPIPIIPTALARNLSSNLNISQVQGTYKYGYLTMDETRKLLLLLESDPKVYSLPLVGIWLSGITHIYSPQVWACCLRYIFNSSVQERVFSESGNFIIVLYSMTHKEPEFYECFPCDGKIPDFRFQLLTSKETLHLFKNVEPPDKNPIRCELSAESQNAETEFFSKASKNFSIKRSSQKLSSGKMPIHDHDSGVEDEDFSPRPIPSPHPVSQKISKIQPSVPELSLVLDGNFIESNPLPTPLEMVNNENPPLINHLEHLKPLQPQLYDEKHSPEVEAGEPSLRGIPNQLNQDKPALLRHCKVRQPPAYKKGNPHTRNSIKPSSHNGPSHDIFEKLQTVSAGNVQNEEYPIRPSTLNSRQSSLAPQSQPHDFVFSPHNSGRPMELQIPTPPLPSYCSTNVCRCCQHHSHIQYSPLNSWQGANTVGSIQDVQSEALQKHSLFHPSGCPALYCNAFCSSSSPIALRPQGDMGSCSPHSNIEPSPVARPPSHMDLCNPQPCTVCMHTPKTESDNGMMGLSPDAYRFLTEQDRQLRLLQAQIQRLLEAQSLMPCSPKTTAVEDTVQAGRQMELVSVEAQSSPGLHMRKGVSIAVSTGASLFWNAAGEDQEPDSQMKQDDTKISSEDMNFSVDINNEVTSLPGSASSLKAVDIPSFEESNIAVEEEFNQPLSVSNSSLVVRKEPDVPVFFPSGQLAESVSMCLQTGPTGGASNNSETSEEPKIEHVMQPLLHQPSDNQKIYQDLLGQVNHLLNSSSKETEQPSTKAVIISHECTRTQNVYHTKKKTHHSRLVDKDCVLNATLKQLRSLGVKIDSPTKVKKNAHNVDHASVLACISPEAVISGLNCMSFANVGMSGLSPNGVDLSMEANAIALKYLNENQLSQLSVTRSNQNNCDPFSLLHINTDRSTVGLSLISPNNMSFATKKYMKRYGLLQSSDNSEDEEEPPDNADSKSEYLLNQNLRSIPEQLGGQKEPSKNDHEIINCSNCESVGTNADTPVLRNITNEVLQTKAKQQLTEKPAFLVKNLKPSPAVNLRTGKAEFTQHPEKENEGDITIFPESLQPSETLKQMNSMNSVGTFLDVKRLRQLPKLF
UniProt P35270: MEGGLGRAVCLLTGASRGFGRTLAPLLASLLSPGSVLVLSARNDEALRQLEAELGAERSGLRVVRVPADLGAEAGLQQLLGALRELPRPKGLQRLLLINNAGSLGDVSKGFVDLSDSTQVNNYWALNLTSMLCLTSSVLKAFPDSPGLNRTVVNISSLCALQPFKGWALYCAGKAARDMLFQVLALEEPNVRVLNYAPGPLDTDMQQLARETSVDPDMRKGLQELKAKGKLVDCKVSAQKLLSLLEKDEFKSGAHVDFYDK

Columns and labels:
Test in all cases: log2 fold change, soluble protein after heating vs DMSO (PISA); higher = thermal stabilisation; K562 lysate, 10 uM; active = over 0.2 and 3.5 SD of the protein, either way, in both replicates (recomputed)
[1] = compound: C1=CC=C(C=C1)[C@H](COC2=CC3=C(C=C2)NC(=O)N3)NC(=O)C4=CC=CN(C4=O)CC5=CC(=C(C=C5)F)F
Method in brief: (§1)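 K562 pellets were dounce-homogenised in PBS pH 7.4 with 1 mM MgCl2, and the crude extract at 1 mg/mL protein was treated with 10 μM compound for 30 min. Aliquots were heated for 3 min across 48°C-58°C, pooled, and brought to 0.5% NP-40 at 4°C; soluble protein was the supernatant after 21,000xg for 90 min. Soluble protein was quantified by TMTpro 16plex LC-MS/MS with channel sums equalised, and reported as log2 fold change in thermal stability against DMSO controls, with values from duplicates.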

[2] = compound: CC1=C(SC2=C1C(=N[C@H](C3=NN=C(N32)C)CC(=O)N)C4=CC=C(C=C4)Cl)C
Method in brief: as §1

[3] = compound: CC1=C2C(=CC=C1)N=C(N(C2=O)C3=CC=CC=C3C)CN4C=NC5=C(N=CN=C54)N
Method in brief: as §1

[4] = compound: Cc1sc2c(c1C)C(c1ccc(Cl)cc1)=N[C@@H](CC(=O)OC(C)(C)C)c1nnc(C)n1-2
Method in brief: as §1

[5] = compound: c1ccc([C@@H]2C[C@H]2NC2CCNCC2)cc1
Method in brief: as §1

Measured: log2 fold change

SRPK2 isoform 2 (UniProt P78362)
inactive: [1] 0.004 | [2] 0.013 | [3] -0.049 | [4] -0.043 | [5] -0.078

SPATA5 (UniProt Q8NB90)
inactive: [1] -0.024 | [2] -0.005 | [3] 0.026 | [4] 0.008 | [5] 0.02

SRSF2 (UniProt Q01130)
inactive: [1] 0.023 | [2] -0.011 | [3] 0 | [4] -0.058 | [5] -0.129

Quoted at random: two records from the list
SRPK2 isoform 2 (UniProt P78362)
inactive: [1] 0.004 | [2] 0.013 | [3] -0.049 | [4] -0.043 | [5] -0.078

SRSF2 (UniProt Q01130)
inactive: [1] 0.023 | [2] -0.011 | [3] 0 | [4] -0.058 | [5] -0.129

Further results.

SSX2 (UniProt Q16385)
inactive: [1] 0.035 | [2] -0.036 | [3] 0.032 | [4] 0.035 | [5] -0.032

SPTB isoform 2 (UniProt P11277)
inactive: [1] -0.019 | [2] -0.054 | [3] 0.04 | [4] 0.005 | [5] 0.026

STAT3 isoform 3 (UniProt P40763)
inactive: [1] 0.042 | [2] 0.062 | [3] -0.121 | [4] 0.048 | [5] 0.004

STAG2 isoform 2 (UniProt Q8N3U4)
inactive: [1] 0.042 | [2] -0.006 | [3] 0.02 | [4] 0.014 | [5] 0.003

STIL isoform 2 (UniProt Q15468)
inactive: [1] 0.014 | [2] -0.037 | [3] 0.069 | [4] -0.046 | [5] -0.049

SPR (UniProt P35270)
inactive: [1] 0.113 | [2] -0.031 | [3] -0.027 | [4] -0.034 | [5] -0.067
